Our source for the binding values is EP3431088A1, “MNTBAP FOR USE IN INDUCING A TRANSIENT IMMUNE TOLERANCE” (priority 2017, dated 2019).

Sequences of proteins named here, by UniProt entry; tags and fusion partners are left off. Residues count along the entry.
UniProt P06240, residues 2-509: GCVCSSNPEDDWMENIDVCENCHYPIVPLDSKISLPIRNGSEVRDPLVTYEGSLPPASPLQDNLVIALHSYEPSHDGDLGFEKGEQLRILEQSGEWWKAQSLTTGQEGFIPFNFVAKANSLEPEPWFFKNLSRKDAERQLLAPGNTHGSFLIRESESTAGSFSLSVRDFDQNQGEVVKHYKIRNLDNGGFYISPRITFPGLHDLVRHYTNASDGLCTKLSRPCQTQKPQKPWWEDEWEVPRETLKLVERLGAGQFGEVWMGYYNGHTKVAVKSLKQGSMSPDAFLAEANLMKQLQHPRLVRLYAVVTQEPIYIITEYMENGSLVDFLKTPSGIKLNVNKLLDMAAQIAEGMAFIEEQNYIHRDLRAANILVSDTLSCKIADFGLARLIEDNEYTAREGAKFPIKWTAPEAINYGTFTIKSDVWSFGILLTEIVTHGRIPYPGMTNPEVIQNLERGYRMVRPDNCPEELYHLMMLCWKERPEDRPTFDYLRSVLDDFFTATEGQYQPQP
UniProt P06332, residues 27-457: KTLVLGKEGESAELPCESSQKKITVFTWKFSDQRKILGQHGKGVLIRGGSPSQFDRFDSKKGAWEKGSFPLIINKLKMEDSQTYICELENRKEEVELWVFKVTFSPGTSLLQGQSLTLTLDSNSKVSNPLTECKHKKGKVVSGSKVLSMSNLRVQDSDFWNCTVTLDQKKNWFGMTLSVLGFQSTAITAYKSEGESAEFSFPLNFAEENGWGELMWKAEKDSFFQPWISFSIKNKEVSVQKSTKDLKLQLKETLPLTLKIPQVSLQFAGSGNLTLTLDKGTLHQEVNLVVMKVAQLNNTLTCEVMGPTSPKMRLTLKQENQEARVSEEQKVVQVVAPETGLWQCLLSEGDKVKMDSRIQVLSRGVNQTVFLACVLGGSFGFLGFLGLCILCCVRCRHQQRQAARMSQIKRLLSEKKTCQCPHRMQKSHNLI

These are yes or no findings as the source states them, for the method shown. In cells and extracts the contact can be indirect. Some binding calls cover weakened binding; strength is not graded here.

The target of experiment [1] is p56^Lck (mouse) (UniProt P06240). Nature of the experiment: co-immunoprecipitation: anti-CD4 (GK1.5) IP from lysates of murine splenic CD4+ T cells, blot for p56Lck; with or without MnTBAP.
Experiment [2] has the same target. As to the kind of experiment: co-immunoprecipitation: anti-CD4 (GK1.5) IP from lysates of murine splenic CD4+ T cells, blot for p56Lck; with or without 400 uM MnTBAP for 2 hours.

For the substance “murine CD4 glycoprotein (from UniProt P06332 27-457) (receptor)”, the binding entry in experiment [1] and in experiment [2] was “binds” throughout.
